Some of these results come from one statement about several compounds together.
What follows are compounds tested against T1, KCNQ1/KCNE1 (Homo sapiens, UniProt P51787) (assay: KCNQ1/KCNE1 (IKS) current amplitude). Details: results not shown.
T1 construct: expressed in transfected cells; host or cells: Xenopus oocytes (stated for Compound 6)
Format: cell-based
Protocol: Briefly, two-electrode voltage-clamp measurements were performed 3-5 days following cRNA microinjection into oocytes. Oocytes were bathed in a modified ND96 solution containing (in mM): 96 NaCl, 2 KCl, 1 MgCl2, 0.1 CaCl2 and 5 HEPES titrated to pH=7.4 with NaOH. Whole-cell currents were recorded at room temperature (20° C.-22° C.) using a GeneClamp 500 amplifier (Axon Instruments, Foster City, Calif., USA). […] Current signals were filtered at 0.5 kHz and digitized at 2 kHz.
The current amplitude of the various channels was measured from a −80 mV holding potential.

Effect on KCNQ1/KCNE1 cardiac channels, no effect:
Cc1c(Cl)cccc1Nc1ccccc1C(=O)NCCOCCO [Compound 3]
O=C(NCCOCCO)c1ccccc1Nc1cccc(C(F)(F)F)c1 [Compound 4]
Cc1cccc(Nc2ccccc2C(=O)NCCOCCO)c1C [Compound 5]
O=C(Cc1ccccc1Nc1c(Cl)cccc1Cl)OCCOCCO [Compound 7]
COCCOCCOC(=O)Cc1ccccc1Nc1c(Cl)cccc1Cl [Compound 8]
CN(CCO)C(=O)Cc1ccccc1Nc1c(Cl)cccc1Cl [Compound 9]

Source: patent US8618169B2, “Derivatives of N-phenylanthranilic acid and 2-benzimidazolone as potassium channel and/or neuron activity modulators” (Ramot at Tel-Aviv University Ltd., priority 2002, dated 2013)
